# Test results published in the supplement of paper PMC6411743.
# By UniProt entry, the sequences of proteins in these tests, tags left out. Where a name states a change or a piece, a line headed by the entry shows the natural chain unless it says otherwise.
# UniProt Q8TEA8: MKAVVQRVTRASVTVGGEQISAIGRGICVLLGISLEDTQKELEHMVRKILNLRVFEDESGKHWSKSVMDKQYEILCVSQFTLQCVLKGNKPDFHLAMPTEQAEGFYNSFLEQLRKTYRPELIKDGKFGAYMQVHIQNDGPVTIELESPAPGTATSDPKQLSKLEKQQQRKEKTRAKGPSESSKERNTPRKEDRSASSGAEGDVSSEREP
# UniProt Q8WW12: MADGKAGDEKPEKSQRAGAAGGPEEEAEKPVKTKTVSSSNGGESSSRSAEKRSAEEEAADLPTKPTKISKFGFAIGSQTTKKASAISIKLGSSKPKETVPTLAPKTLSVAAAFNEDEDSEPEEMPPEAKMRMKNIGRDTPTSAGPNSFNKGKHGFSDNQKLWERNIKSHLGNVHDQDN
# UniProt Q8WUF5: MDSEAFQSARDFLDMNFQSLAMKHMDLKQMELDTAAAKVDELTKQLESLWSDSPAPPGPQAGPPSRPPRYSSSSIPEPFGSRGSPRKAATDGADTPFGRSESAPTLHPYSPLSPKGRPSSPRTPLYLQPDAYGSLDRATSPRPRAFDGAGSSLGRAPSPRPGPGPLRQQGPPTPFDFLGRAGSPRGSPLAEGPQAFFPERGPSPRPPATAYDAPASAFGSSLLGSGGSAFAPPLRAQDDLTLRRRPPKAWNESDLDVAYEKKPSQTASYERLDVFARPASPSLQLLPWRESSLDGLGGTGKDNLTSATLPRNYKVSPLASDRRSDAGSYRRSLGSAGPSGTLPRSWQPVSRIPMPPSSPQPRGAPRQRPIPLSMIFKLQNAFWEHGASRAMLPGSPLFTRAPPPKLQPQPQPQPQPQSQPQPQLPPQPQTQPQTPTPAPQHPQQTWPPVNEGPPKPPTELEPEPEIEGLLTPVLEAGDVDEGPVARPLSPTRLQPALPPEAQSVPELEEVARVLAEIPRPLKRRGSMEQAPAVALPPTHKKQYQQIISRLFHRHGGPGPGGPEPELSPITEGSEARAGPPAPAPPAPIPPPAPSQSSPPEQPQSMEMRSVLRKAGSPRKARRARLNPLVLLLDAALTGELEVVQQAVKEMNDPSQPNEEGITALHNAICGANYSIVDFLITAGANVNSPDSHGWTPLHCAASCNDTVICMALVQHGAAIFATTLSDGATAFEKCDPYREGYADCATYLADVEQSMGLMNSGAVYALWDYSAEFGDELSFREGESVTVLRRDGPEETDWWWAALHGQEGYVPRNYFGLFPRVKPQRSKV
# UniProt Q8NFW8: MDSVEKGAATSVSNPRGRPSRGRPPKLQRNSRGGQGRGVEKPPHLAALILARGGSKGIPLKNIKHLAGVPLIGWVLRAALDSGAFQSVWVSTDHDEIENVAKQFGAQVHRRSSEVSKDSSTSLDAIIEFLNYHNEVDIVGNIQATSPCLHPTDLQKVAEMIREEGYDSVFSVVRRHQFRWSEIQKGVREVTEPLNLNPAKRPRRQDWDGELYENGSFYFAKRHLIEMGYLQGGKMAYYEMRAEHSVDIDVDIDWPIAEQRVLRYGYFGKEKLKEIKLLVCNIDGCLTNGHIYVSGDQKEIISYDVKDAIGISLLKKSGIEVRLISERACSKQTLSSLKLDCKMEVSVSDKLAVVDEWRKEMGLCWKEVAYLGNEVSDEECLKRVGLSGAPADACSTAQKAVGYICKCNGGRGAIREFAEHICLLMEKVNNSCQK
# UniProt Q8WUA4: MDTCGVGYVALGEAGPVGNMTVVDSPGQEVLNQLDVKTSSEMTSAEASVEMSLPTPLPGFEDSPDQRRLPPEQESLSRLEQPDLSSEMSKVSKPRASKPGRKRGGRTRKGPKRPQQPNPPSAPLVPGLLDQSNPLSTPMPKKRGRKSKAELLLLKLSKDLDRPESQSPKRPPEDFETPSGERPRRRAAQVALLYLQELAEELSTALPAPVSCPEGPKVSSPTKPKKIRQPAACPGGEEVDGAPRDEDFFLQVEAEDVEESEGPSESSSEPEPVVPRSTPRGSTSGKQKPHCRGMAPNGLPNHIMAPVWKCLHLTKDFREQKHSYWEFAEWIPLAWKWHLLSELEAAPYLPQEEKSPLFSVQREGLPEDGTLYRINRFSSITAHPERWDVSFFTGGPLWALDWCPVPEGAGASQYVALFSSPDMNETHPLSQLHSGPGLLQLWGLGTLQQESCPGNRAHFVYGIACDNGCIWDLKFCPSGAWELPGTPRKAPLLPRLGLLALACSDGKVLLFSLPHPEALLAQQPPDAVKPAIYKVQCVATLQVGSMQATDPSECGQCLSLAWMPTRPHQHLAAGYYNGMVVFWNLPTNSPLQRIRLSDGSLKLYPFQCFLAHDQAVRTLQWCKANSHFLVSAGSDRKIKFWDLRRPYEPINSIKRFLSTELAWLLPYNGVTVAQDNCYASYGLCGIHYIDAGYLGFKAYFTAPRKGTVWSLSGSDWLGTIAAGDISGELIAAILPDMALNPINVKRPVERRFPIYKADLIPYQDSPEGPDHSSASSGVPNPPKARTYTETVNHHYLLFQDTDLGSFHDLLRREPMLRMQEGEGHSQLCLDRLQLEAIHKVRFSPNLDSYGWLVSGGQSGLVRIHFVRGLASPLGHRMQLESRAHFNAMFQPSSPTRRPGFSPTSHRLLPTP
# UniProt Q8WWI5: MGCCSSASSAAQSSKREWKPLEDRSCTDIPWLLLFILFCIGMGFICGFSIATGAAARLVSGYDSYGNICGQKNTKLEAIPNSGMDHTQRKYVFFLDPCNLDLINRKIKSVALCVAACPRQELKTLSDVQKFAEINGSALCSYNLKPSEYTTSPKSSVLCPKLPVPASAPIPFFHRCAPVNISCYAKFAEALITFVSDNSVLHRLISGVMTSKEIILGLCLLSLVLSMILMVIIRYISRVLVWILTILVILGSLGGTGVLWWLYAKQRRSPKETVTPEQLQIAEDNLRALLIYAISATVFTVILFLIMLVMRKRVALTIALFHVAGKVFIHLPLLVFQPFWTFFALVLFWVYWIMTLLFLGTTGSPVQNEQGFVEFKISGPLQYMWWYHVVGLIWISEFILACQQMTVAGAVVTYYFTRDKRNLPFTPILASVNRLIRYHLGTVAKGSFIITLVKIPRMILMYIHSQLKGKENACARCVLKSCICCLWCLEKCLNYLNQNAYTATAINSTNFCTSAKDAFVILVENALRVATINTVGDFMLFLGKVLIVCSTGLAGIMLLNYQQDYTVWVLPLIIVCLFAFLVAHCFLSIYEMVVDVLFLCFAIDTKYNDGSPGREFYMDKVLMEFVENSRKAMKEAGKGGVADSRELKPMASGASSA
# UniProt Q8TAP9: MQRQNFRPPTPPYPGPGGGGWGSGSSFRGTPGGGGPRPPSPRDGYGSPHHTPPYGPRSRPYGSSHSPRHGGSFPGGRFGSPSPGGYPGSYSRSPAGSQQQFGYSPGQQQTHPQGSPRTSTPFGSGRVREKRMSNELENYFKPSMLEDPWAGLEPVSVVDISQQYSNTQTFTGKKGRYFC
# UniProt Q8NFZ8: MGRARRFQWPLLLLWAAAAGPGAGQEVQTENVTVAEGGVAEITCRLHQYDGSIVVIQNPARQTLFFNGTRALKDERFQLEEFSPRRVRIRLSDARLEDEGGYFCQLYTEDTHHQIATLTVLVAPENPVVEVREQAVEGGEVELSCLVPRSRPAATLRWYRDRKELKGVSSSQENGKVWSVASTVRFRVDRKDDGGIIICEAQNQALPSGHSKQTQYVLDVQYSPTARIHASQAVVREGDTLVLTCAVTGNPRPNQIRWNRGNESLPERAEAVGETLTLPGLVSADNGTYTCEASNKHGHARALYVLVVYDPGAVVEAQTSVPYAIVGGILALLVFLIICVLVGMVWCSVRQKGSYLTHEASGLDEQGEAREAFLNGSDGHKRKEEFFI
# UniProt Q8TA86: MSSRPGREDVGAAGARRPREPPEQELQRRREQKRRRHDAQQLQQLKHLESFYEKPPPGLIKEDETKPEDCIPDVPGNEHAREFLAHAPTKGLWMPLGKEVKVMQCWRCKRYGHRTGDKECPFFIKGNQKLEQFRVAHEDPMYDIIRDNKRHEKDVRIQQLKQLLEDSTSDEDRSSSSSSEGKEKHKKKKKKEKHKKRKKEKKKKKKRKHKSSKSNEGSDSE
# UniProt Q8WVQ1: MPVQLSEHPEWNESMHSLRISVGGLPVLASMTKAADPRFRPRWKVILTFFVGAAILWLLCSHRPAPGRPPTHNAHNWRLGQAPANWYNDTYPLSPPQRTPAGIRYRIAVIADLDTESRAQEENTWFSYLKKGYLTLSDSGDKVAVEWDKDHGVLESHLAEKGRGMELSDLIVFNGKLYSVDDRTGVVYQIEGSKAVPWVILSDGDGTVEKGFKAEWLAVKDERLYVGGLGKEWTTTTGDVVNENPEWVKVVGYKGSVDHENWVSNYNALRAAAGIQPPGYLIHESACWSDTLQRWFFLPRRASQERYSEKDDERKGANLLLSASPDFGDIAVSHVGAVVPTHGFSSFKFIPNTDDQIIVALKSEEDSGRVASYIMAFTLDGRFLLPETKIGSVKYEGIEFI
# UniProt Q92545: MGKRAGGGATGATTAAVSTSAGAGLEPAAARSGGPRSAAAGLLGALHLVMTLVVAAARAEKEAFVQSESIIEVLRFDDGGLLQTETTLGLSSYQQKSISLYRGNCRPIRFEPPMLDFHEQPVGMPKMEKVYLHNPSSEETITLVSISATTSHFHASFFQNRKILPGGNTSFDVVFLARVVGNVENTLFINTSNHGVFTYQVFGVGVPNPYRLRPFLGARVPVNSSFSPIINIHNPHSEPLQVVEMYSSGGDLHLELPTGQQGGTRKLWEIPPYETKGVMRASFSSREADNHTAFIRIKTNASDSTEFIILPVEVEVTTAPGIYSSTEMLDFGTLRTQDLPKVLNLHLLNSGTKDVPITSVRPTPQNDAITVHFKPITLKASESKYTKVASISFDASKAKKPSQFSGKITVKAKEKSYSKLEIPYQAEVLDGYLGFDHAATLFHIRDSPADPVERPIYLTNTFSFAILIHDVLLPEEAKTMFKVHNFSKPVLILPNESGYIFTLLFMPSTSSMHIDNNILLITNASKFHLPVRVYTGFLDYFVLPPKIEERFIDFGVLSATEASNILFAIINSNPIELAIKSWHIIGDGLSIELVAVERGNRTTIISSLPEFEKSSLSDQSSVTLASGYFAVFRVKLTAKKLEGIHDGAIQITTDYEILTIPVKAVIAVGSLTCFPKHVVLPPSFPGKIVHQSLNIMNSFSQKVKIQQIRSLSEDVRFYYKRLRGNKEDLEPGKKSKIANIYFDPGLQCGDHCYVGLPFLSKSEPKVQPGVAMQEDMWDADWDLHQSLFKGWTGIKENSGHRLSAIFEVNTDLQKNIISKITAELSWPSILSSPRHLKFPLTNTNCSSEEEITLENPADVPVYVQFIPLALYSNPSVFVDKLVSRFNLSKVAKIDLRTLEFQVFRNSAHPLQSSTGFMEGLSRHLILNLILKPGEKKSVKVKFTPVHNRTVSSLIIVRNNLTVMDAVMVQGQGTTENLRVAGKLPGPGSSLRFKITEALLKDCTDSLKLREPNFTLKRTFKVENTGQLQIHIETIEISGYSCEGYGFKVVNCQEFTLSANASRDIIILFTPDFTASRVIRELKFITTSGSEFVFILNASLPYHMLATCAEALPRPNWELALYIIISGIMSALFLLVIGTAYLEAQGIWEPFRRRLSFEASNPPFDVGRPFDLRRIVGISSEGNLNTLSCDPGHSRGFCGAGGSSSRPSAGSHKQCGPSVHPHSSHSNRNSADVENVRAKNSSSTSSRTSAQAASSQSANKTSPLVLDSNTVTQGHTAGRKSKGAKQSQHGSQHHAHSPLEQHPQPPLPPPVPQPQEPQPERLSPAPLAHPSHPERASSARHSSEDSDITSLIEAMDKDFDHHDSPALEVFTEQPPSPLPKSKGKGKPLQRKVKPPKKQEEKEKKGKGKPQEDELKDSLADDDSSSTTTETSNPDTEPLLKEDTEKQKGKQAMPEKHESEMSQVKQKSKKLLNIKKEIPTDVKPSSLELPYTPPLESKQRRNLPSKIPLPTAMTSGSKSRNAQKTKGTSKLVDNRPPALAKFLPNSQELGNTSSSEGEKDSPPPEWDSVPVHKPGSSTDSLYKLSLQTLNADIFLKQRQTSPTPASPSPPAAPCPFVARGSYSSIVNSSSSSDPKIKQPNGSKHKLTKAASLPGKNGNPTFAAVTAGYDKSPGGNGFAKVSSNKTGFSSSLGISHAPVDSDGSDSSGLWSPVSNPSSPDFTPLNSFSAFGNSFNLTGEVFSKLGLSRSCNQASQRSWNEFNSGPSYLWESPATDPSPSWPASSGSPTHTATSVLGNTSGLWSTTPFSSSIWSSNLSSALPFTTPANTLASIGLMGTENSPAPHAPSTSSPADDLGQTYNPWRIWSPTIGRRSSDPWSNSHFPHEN
# UniProt Q8TDQ7: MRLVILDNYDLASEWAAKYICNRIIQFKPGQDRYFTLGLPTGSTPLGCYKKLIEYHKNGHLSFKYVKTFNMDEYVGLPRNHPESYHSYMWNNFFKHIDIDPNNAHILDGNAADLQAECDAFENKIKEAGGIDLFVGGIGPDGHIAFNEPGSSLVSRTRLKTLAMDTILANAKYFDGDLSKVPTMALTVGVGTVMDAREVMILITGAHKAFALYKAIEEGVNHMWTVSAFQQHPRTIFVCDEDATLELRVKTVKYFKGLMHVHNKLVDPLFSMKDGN
# ± gives the standard deviation of the averaged measurements. This is a selection; strong and weak results do not stand in their true shares. Most values lie at the level of the controls, where differences are scatter.
# Compound: Nc1ncnc2c1ncn2[C@@H]1O[C@H](COP(=O)(O)OP(=O)(O)NP(=O)(O)O)[C@@H](O)[C@H]1O [adenylyl imidodiphosphate]
# Assay: NP40-soluble protein abundance relative to vehicle (solubility fold change) (ratio); higher = more soluble protein in presence of AMP-PNP
# Outline: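 Jurkat crude lysate prepared with a Dounce homogeniser was treated at eight concentrations spanning 0.1 to 10 mM, 10 min at room temperature then 3 min at 37 °C. Solubilisation with 0.8% NP40 and benzonase and ultracentrifugation preceded TMT labelling of the supernatant for LC-MS/MS. Fold change against the detergent-processed vehicle was determined per replicate from vsn-normalised intensities, across three independent experiments.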
Target,NP40-soluble protein abundance (concentration: 0.1mM),NP40-soluble protein abundance (concentration: 0.5mM)
DTD1 (UniProt Q8TEA8),0.991 ± 0.023,1.02 ± 0.054
PCNP (UniProt Q8WW12),1 ± 0.059,1.11 ± 0.18
PPP1R13L (UniProt Q8WUF5),1.01 ± 0.011,1.011 ± 0.0079
RNF214 (UniProt Q8ND24),0.994 ± 0.024,0.999 ± 0.032
DNAJB14 (UniProt Q8TBM8),0.983 ± 0.036,0.973 ± 0.019
TFB1M (UniProt Q8WVM0),1 ± 0.06,0.986 ± 0.074
CMAS (UniProt Q8NFW8),0.9817 ± 0.0014,1.01 ± 0.024
UniProt Q92845 and related entries,1.002 ± 0.0039,0.997 ± 0.033
GCDH (UniProt Q92947),0.9896 ± 0.0028,0.972 ± 0.011
GTF3C2 (UniProt Q8WUA4),0.973 ± 0.014,0.953 ± 0.024
SLC44A1 (UniProt Q8WWI5),1.02 ± 0.012,0.989 ± 0.032
UniProt Q8TAP9,0.975 ± 0.02,1.01 ± 0.035
CADM4 (UniProt Q8NFZ8),1 ± 0.026,1.02 ± 0.034
UniProt Q8TA86 and related entries,1.02 ± 0.026,1.03 ± 0.062
UniProt Q8WVQ1 and related entries,0.961 ± 0.034,0.981 ± 0.012
PNPT1 (UniProt Q8TCS8),0.9899 ± 0.0044,0.987 ± 0.031
TMEM131 (UniProt Q92545),0.963 ± 0.021,0.985 ± 0.017
UBA3 (UniProt Q8TBC4),1.01 ± 0.026,0.9941 ± 0.0065
UBXN4 (UniProt Q92575),0.9721 ± 0.0042,0.997 ± 0.073
UniProt Q92614 and related entries,1.01 ± 0.021,1.01 ± 0.038
UniProt Q8TC07-2,1.02 ± 0.023,0.992 ± 0.041
KIF18A (UniProt Q8NI77),1.02 ± 0.038,1.03 ± 0.077
UniProt Q8TDQ7 and related entries,1 ± 0.013,1.02 ± 0.063

# Not a retest: an excerpt of the list.
Target,NP40-soluble protein abundance (concentration: 0.1mM),NP40-soluble protein abundance (concentration: 0.5mM)
UBA3 (UniProt Q8TBC4),1.01 ± 0.026,0.9941 ± 0.0065
UBXN4 (UniProt Q92575),0.9721 ± 0.0042,0.997 ± 0.073
